# Source: PubChem BioAssay AID1671190 (National Center for Advancing Translational Sciences (NCATS), 2021)
# By UniProt entry, the sequences of proteins in these tests, tags left out. Where a name states a change or a piece, a line headed by the entry shows the natural chain unless it says otherwise.
# UniProt P18054: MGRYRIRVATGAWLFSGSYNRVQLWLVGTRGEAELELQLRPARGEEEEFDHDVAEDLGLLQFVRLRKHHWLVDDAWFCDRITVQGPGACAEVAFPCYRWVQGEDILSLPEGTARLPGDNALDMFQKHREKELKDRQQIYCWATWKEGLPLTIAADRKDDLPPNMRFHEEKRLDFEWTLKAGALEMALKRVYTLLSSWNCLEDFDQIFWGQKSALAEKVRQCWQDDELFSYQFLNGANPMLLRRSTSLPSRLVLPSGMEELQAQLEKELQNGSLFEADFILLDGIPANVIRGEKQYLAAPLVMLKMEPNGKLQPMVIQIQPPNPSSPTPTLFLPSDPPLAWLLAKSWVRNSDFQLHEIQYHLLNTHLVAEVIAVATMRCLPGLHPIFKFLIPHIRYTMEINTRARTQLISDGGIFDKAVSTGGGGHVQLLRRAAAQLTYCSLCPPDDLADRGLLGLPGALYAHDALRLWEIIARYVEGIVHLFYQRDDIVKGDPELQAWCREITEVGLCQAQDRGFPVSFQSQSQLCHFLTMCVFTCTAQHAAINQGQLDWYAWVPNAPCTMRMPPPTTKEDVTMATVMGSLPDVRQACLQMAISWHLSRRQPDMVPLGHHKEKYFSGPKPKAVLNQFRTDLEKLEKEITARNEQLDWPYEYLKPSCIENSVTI
# Screen size: about 580,000 compounds; about 6,100 (1.1%) were called active. This list was built around the results that the source calls inconclusive (neither active nor inactive); the mix of calls is not that of the screen. The call rests on the fitted dose curve; in most records, active means well fitted inhibition curve with a large enough effect; inconclusive means small, poorly fitted or top-dose-only effect, or another doubt; inactive means no such curve, though single readings can be large or run the other way. A potency beside an inconclusive call is a rough fit, not a confirmed value.
# Target: Polyunsaturated fatty acid lipoxygenase ALOX12 (Homo sapiens) (UniProt P18054)
# Assay: Primary qHTS assay for inhibitors of human arachidonate 12S-lipoxygenase (ALOX12): Round 2
# Details: purified 12hLO, xylenol orange hydroperoxide absorbance; activity change, negative = inhibition: at 108 µM (top of the series) unless noted
# Summary of the method: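 Hydroperoxide product was detected by ferrous iron/xylenol orange as the 573 to 405 nm absorbance ratio. Arachidonic acid at 40 uM (final) was turned over for 30 min at room temperature by 150 nM human 12hLO, pH 7.0 Hepes buffer, after 15 min compound preincubation.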
# On the % scale 0 is the no-effect control and ±100 the full control effect; potency means the concentration at half of the fitted maximal effect.
Structure (SMILES),Potency,"activity change, negative = inhibition"
O=C(NCc1ccc2c(c1)OCO2)c1ccc2c(c1)S(=O)(=O)c1ccccc1C2=O,"inconclusive: 100 µM [inhibitor, partial curve, poor fit]",
Cc1ccc(-n2nc(C)c3c2OC(N)=C(C#N)C3c2ccc(F)cc2)cc1 (stereo unspecified),"inconclusive: 5.01 µM [inhibitor, full curve, poor fit]",
O=C(Cc1ccc(S(=O)(=O)N2CCOCC2)s1)Nc1ccccc1N1CCOCC1,inactive,
COc1cccc(NC(=O)CSc2nn3c(=O)c(C)nnc3s2)c1,inactive,
CC(C)C(=O)N1CCC(Oc2ncccc2C(=O)N2CCCCC2)C1 (stereo unspecified),inactive,
O=C1CS(=O)(=O)C2(C(=O)N(Cc3ccccc3Cl)c3ccccc32)N1c1ccc(F)cc1 (stereo unspecified),inactive,
CCOc1cccc(NC(=O)C2CC(=O)N(CC)C(=Nc3ccc(F)cc3)S2)c1 (stereo unspecified),inactive,
COC(=O)c1c(NC(=O)Cc2ccccc2)sc2c1CC(C)(C)NC2(C)C,inactive,
CCOc1ccc(CCNC(=O)c2cc3cccc4c3n2CCS4)cc1,"inconclusive: 100 µM [inhibitor, partial curve, poor fit]",
Cc1ccccc1OCC(=O)OC(C)CN1CCN(C)CC1 (stereo unspecified),"inconclusive: 28.2 µM [inhibitor, partial curve, poor fit]",
N#Cc1c(NC(=O)CSc2ncnc3ccccc23)sc2c1CCCCC2,inactive,
CCCCOc1ccc(Cc2n[nH]c(=S)n2N)cc1,active: 8.91 µM,
CN(C)c1ccnc(-c2ccccc2C(F)(F)F)n1,active: 50.1 µM,
CCCC(=O)N(c1ccc2oc(C)c(C(C)=O)c2c1)S(=O)(=O)c1ccc(CC)cc1,inactive,
Cc1cc(Cl)ccc1OCCNC(=S)NC(=O)c1cccnc1,inactive,
O=C(CSc1ccc2ccccc2c1)N1CCN(c2ccc(O)cc2)CC1,"inconclusive: 44.7 µM [inhibitor, partial curve, poor fit]",
O=[N+]([O-])c1ccc(N2CCN(c3nc(-c4ccc(Cl)cc4)cs3)CC2)cc1,inactive,
O=C(C1CCN(C2CC(=O)N(c3cccc(Cl)c3)C2=O)CC1)N1CCCCCC1 (stereo unspecified),inactive,
O=C(O)c1cc(I)ccc1I,"inconclusive: 20 µM [inhibitor, full curve, poor fit]",
O=S(=O)(NNc1ccc(Cl)nn1)c1ccc(F)cc1,active: 1.26 µM,
CC(C)CCN1CCc2nc(N3CCc4ccccc4C3)[nH]c(=O)c2CC1,inactive,
CCn1ccnc1C[C@@H]1COc2ccccc2O1,"inconclusive: 25.1 µM [inhibitor, single point]",
Cn1nc(C(=O)OCc2nc(-c3ccc(Br)cc3)no2)c2ccccc21,"inconclusive: 0.224 µM [inhibitor, full curve, poor fit]",
CCOc1ccc(/C(=N/O)C(C)NO)cc1 (stereo unspecified),"inconclusive: 35.5 µM [inhibitor, partial curve, poor fit]",

# Of the compounds above, these have fluorine:
Structure (SMILES),Potency,"activity change, negative = inhibition"
Cc1ccc(-n2nc(C)c3c2OC(N)=C(C#N)C3c2ccc(F)cc2)cc1 (stereo unspecified),"inconclusive: 5.01 µM [inhibitor, full curve, poor fit]",
O=C1CS(=O)(=O)C2(C(=O)N(Cc3ccccc3Cl)c3ccccc32)N1c1ccc(F)cc1 (stereo unspecified),inactive,
CCOc1cccc(NC(=O)C2CC(=O)N(CC)C(=Nc3ccc(F)cc3)S2)c1 (stereo unspecified),inactive,
CN(C)c1ccnc(-c2ccccc2C(F)(F)F)n1,active: 50.1 µM,
O=S(=O)(NNc1ccc(Cl)nn1)c1ccc(F)cc1,active: 1.26 µM,

# (listing goes on)

Structure (SMILES),Potency,"activity change, negative = inhibition"
COC(=O)C1=C(C)N(C)C(=O)N(C)C1c1ccccc1F (stereo unspecified),inactive,
CCN1C(=O)C(CC(=O)Nc2ccc(OC)cc2)N(CCc2ccc(F)cc2)C1=S (stereo unspecified),"inconclusive: 50.1 µM [inhibitor, partial curve, poor fit]",
O=S(=O)(Nc1ccc2c(c1)nc1n2CCN(Cc2ccccc2)C1)c1ccc(F)cc1,inactive,
O=C1NC(=NC2CCCC2)C2(CCN(Cc3ccc(F)cc3)C2)N1c1cccnc1 (stereo unspecified),"inconclusive: 100 µM [inhibitor, partial curve, poor fit]",
CCCCN1C(=O)C(CC(=O)NC(c2ccccc2)c2ccccc2)CC(C(=O)N(C)C)=C1C (stereo unspecified),inactive,
CCOc1ccc(C(=O)COC(=O)CCC(=O)c2ccc(Cl)cc2)cc1,inactive,
Clc1ccccc1-c1nn2c(-c3ccc4ccccc4n3)nnc2s1,"inconclusive: 35.5 µM [inhibitor, partial curve, poor fit]",
COc1cccc(CN2CCN(C(=O)c3cccc4ccccc34)CC2)c1OC,"inconclusive: 0.224 µM [inhibitor, full curve, poor fit]",
O=C(CCCOc1ccccc1)Nc1ccc(Br)cc1,"inconclusive: 28.2 µM [inhibitor, single point]",
CCCN(CCC)S(=O)(=O)c1ccc(SCC(=O)OCC)c([N+](=O)[O-])c1,"inconclusive: 2.82 µM [inhibitor, full curve, poor fit]",
CC[C@H]1OC(=O)[C@H](C)[C@@H](O[C@H]2C[C@@](C)(OC)[C@@H](O)[C@H](C)O2)[C@H](C)[C@@H](O[C@@H]2O[C@@H](C)C[C@H](N(C)C)[C@@H]2O)[C@](C)(O)C[C@@H](C)C(=O)[C@H](C)[C@@H](O)[C@]1(C)O,inactive,
COCCN(C(=O)c1snc(C(N)=O)c1N)C(C(=O)NC1CCCCC1)c1ccc(F)cc1 (stereo unspecified),"inconclusive: 8.91 µM [inhibitor, full curve, poor fit]",
Cc1onc(-c2ccccc2)c1C(=O)N1CCN(Cc2ccccc2)CC1,"inconclusive: 39.8 µM [inhibitor, partial curve, poor fit]",
Cc1c(-c2ccccc2)oc2c(C(=O)NCCCO)cccc2c1=O,inactive,
Cc1cc(/C=C(\C#N)C(=O)O)c(C)n1-c1ccc(Br)cc1,inactive,
Cc1cc(C)c(NC(=O)CSc2ncc3c(n2)-c2cc(Cl)ccc2N(C)S3(=O)=O)c(C)c1,"inconclusive: 141 µM [inhibitor, partial curve, poor fit]",
O=C(O)CN1C(=O)/C(=C/c2ccccc2Cl)Oc2ccccc21,,inconclusive: -35.6% [inhibitor]
C=Cc1ccc(Cn2c(C(=O)O)c(CNCc3ccc(F)cc3)c3ccc(C)cc32)cc1,"inconclusive: 112 µM [inhibitor, partial curve, poor fit]",
Cc1cc(N2CC(C)OC(C)C2)nc2ccccc12 (stereo unspecified),inactive,
C[N+](C)(C)CCCC#CC#CCCC[N+](C)(C)C,active: 39.8 µM,
COc1ccc(NC(=O)Cn2cnc3c(oc4nc5c(cc43)COC(C)(C)C5)c2=O)cc1,"inconclusive: 112 µM [inhibitor, single point]",
Cc1ccc2c(c1)N(C(=O)CCC(=O)N1CCN(c3cccc(C)c3C)CC1)CCO2,inactive,
Cc1cc(-c2csc(NC3CCCCC3)n2)c(C)n1NC(=O)c1nn(C)c(=O)c2ccccc12,"inconclusive: 31.6 µM [inhibitor, partial curve, poor fit]",
O=S(=O)(Nc1ccc2ccccc2n1)c1ccccc1Cl,"inconclusive: 126 µM [inhibitor, single point]",

Structure (SMILES),Potency,"activity change, negative = inhibition"
CC(C(=O)Nc1ccc(S(=O)(=O)N2CCCC2)cc1)N1CCc2ccccc2C1 (stereo unspecified),inactive,
CSCCC(NC(=O)COc1ccccc1)C(=O)NCC(C)(C)N1CCOCC1 (stereo unspecified),inactive,
CCC(C(=O)NC(C)C)c1ccccc1 (stereo unspecified),inactive,
COC(=O)c1c(NC(=O)c2ccc(S(=O)(=O)N3CCC(C)CC3)cc2)sc2c1CCN(C)C2,"inconclusive: 50.1 µM [inhibitor, partial curve, poor fit]",
CCNC(=O)N(C)C[C@H]1N[C@@](CC)(C(=O)OC)[C@H]2C(=O)N(C)C(=O)[C@@H]12,"inconclusive: 5.01 µM [inhibitor, full curve, poor fit]",
COc1cc(CNn2cnnc2)cc(Cl)c1OCc1ccccc1,"inconclusive: 39.8 µM [inhibitor, single point]",
CC(C)CCN(C)C1CCN(C(=O)Nc2ccc(Cl)cc2)CC1,inactive,
O=C(Nc1cccc(-c2nc3cccnc3s2)c1)c1cccnc1Cl,inactive,
Cc1cc(C)c(OCC(=O)Nc2ccccc2N2CCOCC2)c(C)c1,inactive,
Cc1cc(C)c(NC(=O)CSc2nnc3[nH]c(=O)cc(-c4ccccc4)n23)c(C)c1,"inconclusive: 7.94 µM [inhibitor, partial curve, poor fit]",
CCCCn1nnnc1C(c1cc2ccccc2o1)N1CCN(C(=O)OC(C)(C)C)CC1 (stereo unspecified),inactive,
CN(C(=O)c1cccc(NC(=O)Cc2ccc(NC(=O)C3CCCN(C(=O)C4CCCC4)C3)cc2)c1)C1CCC1 (stereo unspecified),"inconclusive: 31.6 µM [inhibitor, single point]",
N#C/C(=C\c1cccnc1)C(=O)NC1CCCCC1,inactive,
COC(=O)CCCC1=CC2=C(c3ccccc3)C(=O)C(C)(OC(=O)C3CCCC3)C(=O)C2=CN1c1ccccc1 (stereo unspecified),"inconclusive: 44.7 µM [inhibitor, partial curve, poor fit]",
CCOC(=O)C(Cc1ccccc1)(Nc1ccccc1OC)C(O)c1ccc(C#N)cc1 (stereo unspecified),inactive,
CC1(C)CC(=O)C(C(O)c2ccc([N+](=O)[O-])cc2)C(C)(C)N1 (stereo unspecified),"inconclusive: 44.7 µM [inhibitor, partial curve, poor fit]",
Cc1cccc(NC(=O)c2cc(-c3ccc(C)o3)nc3ccccc23)c1,active: 10 µM,
COc1ccc(C(=O)c2c(O)cc(-c3ccc(OC)cc3)oc2=O)cc1,"inconclusive: 50.1 µM [inhibitor, partial curve, poor fit]",
COc1ccc2ccccc2c1CCNC(=O)CC1C(=O)NCCN1C(C)C (stereo unspecified),"inconclusive: 25.1 µM [inhibitor, partial curve, poor fit]",
Cc1cccc(NS(=O)(=O)c2cccc(C(=O)NCC3(N4CCCCC4)CCCCC3)c2)c1,"inconclusive: 50.1 µM [inhibitor, partial curve, poor fit]",
Cc1ccc(/C=C/C(=O)NCc2ccco2)o1,inactive,
CCCCOc1ccc(C(=O)N/C(=C\c2cccc([N+](=O)[O-])c2)C(=O)OCc2ccco2)cc1,inactive,
COc1cc(OC)cc(C(=O)/C(=C/c2ccccn2)c2nc3ccccc3o2)c1,"inconclusive: 39.8 µM [inhibitor, single point]",
